From patent US20060019335A1, “Compositions and methods to promote c-IAP autodegradation” (priority 2004, published 2006)
These are yes or no findings as the source states them, for the method shown. Binding seen in cells or lysates may run through a third protein. Binding calls can cover weak binding; strength is not graded here. Sequences can lack the tags named with a protein.

Target: T1, GST fusion protein of Livin β (human) (UniProt Q96CA5)
T1 sequence (looked up): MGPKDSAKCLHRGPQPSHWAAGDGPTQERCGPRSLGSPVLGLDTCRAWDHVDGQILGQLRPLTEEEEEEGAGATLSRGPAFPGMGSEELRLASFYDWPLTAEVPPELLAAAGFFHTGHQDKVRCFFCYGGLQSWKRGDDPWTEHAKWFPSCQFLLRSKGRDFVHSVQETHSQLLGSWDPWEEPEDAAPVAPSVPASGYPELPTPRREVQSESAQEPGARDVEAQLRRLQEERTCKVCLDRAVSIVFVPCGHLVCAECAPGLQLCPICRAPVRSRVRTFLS
Assay: GST pull-down at equimolar concentrations, silver stain of supernatants (FIG. 4)

binding: binds
Substance: C-terminal (His)9-tagged mature form Smac polypeptide (wild type) (ligand)
